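Alamar Blue readout of Cryptococcus neoformans cell growth following a 24 h incubation with each compound.
Percent change in signal, scaled so neutral controls are 0 and positive controls are -100; more negative means stronger growth inhibition.
Inconclusive is filed for a poor-quality curve fit or a flat fit between -70% and -30%; active requires a fitted AC50 at most twice the top valid dose.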

Values are in %.
All entries here are filed as inconclusive.
These entries are mostly ones the record files as inconclusive; other results of the assay are not listed here.

Compound: COc1ccccc1NC(=S)NCc1ccc(Cl)cc1
condition: at 35 µM (top of the series)
activity change (%): -48.38

Compound: C[C@H](CO)N1C[C@H](C)[C@@H](CN(C)Cc2ccc(Oc3ccccc3)cc2)Oc2ccc(NS(=O)(=O)c3cn(C)cn3)cc2CC1=O
condition: at 35 µM (top of the series)
activity change (%): -35.52

Compound: O=C(NC(=S)Nc1ccccc1N1CCCC1)c1ccc([N+](=O)[O-])cc1
condition: at 35 µM (top of the series)
activity change (%): -41.9

Compound: CNC(=O)CN(c1ccccc1)S(=O)(=O)c1ccc(F)cc1
condition: at 38 µM (top of the series)
activity change (%): -42.92

Compound: Cc1cc(C)c(NC(=O)CN2CCN3CCCC3C2)c(C)c1 (stereo not drawn)
condition: at 35 µM (top of the series)
activity change (%): -44.47

Compound: CCOC(=O)CNC(=O)CSc1ncnc2c1cnn2-c1ccccc1
condition: at 35 µM (top of the series)
activity change (%): -59.05

Compound: COc1ccc(CNC(=S)NCc2ccc(OC)cc2)cc1
condition: at 35 µM (top of the series)
activity change (%): -68.55

Compound: O=C(CN(c1ccc(F)cc1)S(=O)(=O)c1ccccc1)NC1CC2CCC1C2 (stereo not drawn)
condition: at 35 µM (top of the series)
activity change (%): -47.82

Compound: Cc1ccccc1OCC(=O)NC(C)c1ccccc1 (stereo not drawn)
condition: at 35 µM (top of the series)
activity change (%): -40.16

Compound: CCNC(=O)CN(c1ccc(Cl)cc1)S(=O)(=O)c1ccccc1
condition: at 35 µM (top of the series)
activity change (%): -32.3

Compound: C/C=C/c1ccc([C@@H]2[C@@H](CNC(=O)C3CCC3)N(C(=O)NCCC)[C@H]2CO)cc1
condition: at 35 µM (top of the series)
activity change (%): -9.382

Compound: S=C(Nc1ccccc1)Nc1cc(Cl)ccc1Oc1ccccc1
condition: at 35 µM (top of the series)
activity change (%): -41.22

Compound: O=C(COc1ccccc1)NCc1ccc2c(c1)OCO2
condition: at 35 µM (top of the series)
activity change (%): -38.97

Compound: O=C(Nc1ccc2ncccc2c1)c1ccccc1
condition: at 35 µM (top of the series)
activity change (%): -40.62

Compound: CC(=O)c1sc(NC(=O)c2cc(-c3ccccc3)nn2-c2ccccc2)nc1C
condition: at 35 µM (top of the series)
activity change (%): -36.3

Compound: COc1ccccc1C#Cc1ccc2c(c1)O[C@H](CN(C)C(C)=O)[C@H](C)CN([C@@H](C)CO)S2(=O)=O
condition: at 35 µM (top of the series)
activity change (%): 13.55

Compound: COc1ccc(N(C)C(=O)c2cn(CC(C)C)c(=O)c3cc(OC)c(OC)cc23)c(OC)c1
condition: at 35 µM (top of the series)
activity change (%): -36.51

Compound: COc1ccc(C#Cc2ccc3c(c2)O[C@H](CN(C)C(C)=O)[C@@H](C)CN([C@@H](C)CO)S3(=O)=O)cc1
condition: at 35 µM (top of the series)
activity change (%): -34.83

Compound: CC(=O)c1ccc(OCC(=O)NCc2ccc(F)cc2)cc1
condition: at 35 µM (top of the series)
activity change (%): -33.91

The results are deposited in PubChem (AID686998; Broad Institute, 2013).